Reference: US20170001988A1, “PIPERIDINE AND PIPERAZINE DERIVATIVES AND THEIR USE IN TREATING VIRAL INFECTIONS AND CANCER” (THE UNITED STATES OF AMERICA, AS REPRESENTED BY THE …, priority 2013, published 2017)
At least one compound was matched to its structure with a doubt left. Some entries repeat one wording, which the source may state once for all of them.

Test system: HCV-Luc
Test: HCV-Luc assay of (S)-CCZ combinations, MacSynergy II and CalcuSyn analysis
Assay type: cell-based
Settings: combination with (S)-CCZ
Method: Direct-acting antivirals, such as telaprevir and daclatasvir, were recently approved for therapy of hepatitis C. […] Using the MacSynergy II program based on Bliss independence model, three-dimensional surface plots were generated and log volume of synergism was calculated for each combination. The results were also analyzed with the CalcuSyn program, in which the combination indices were calculated.

SMILES	antiviral effect of (S)-CCZ with the drug named
COC(=O)N[C@H](C(=O)N1CCC[C@H]1c1nc(-c2ccc(-c3ccc(-c4c[nH]c([C@@H]5CCCN5C(=O)[C@@H](NC(=O)OC)C(C)C)n4)cc3)cc2)c[nH]1)C(C)C [Daclataivir]	highly synergistic
CCC[C@H](NC(=O)[C@@H]1[C@H]2CCC[C@H]2CN1C(=O)[C@@H](NC(=O)[C@@H](NC(=O)c1cnccn1)C1CCCCC1)C(C)(C)C)C(=O)C(=O)NC1CC1 [Telaprevir]	highly synergistic
